{
  "source": "paper PMC4917652",
  "binders": {"B1": {"name": "C-reactive protein (CRP), biotinylated (protein, UniProt P02741 19-224)", "chain": "QTDMSRKAFVFPKESDTSYVSLKAPLTKPLKAFTVCLHFYTELSSTRGYSIFSYATKRQDNEILIFWSKDIGYSFTVGGSEILFEVPEVTVAPVHICTSWESASGIVEFWVDGKPRVRKSLKKGYTVGAEASIILGQEQDSFGGNFEGSQSLVGDIGNVNMWDFVLSPDEINTIYLGGPFSPNVLNWRALKYEVQGEVFTKPQLWP", "modifications": "biotinylated (EZ-Link Sulfo-NHS-LC-Biotin Kit); sites not stated"}},
  "biological_target": "Histone H1 (linker subunit)",
  "assay": "ELISA; solid-phase binding assay: 1 μg/ml of each histone subunit coated on 96-well plates in 50 mM NaHCO3/Na2CO3 buffer, pH 9.6, 12 h at 4 °C; blocked with PBS containing 5% BSA; 1 μg/ml biotinylated Clu, SAP, CRP or HSA for 2 h; HRP-labeled streptavidin; OD at 492 nm; both purified",
  "note": "No constants are given. Whether binding was seen depends on the method and setting. Binding calls can cover weak binding; strength is not graded here.",
  "data": [
    {"binder": "B1", "values": [
      {"measurement": "binding", "value": "binds"}
    ]}
  ]
}
